Results from the supplement of paper PMC12282887.
These are raw signals, not scaled to a control.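 The top concentration was set near the MIC for antimicrobials, at 500 µM for most other compounds, and up to 1 mM for known inducer-like compounds. Deletion strains started from a tenfold smaller inoculum, and wells growing below 10% of the overall median were treated as non-growing.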

System: Escherichia coli BW25113
Assay: growth (OD600 area under curve, 8 h) (OD600 x h); higher = more growth
Description: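 E. coli BW25113 reporter strains (wild type, ΔmarA, ΔsoxS, Δrob, each carrying one of 8 lux reporter plasmids) were grown in 40 µl LB in 384-well plates at 37°C, 800 rpm, with each compound at 4 two-fold concentrations, in biological duplicates. Growth is the baseline-corrected OD600 area under the curve over 8 h (0-8 h WT, 1-9 h deletion strains).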

CCC[C@@H]1C[C@@H](C(=O)N[C@@H]([C@H]2O[C@H](SC)[C@H](O)[C@@H](O)[C@H]2O)[C@H](C)Cl)N(C)C1 [Clindamycin]
growth
Settings	reporter plasmid: EVC	reporter plasmid: acrABp	reporter plasmid: marRABp	reporter plasmid: micFp	reporter plasmid: ompFp	reporter plasmid: robp	reporter plasmid: soxSp	reporter plasmid: tolCp
0.26 µg/ml, genetic background: wild type	2.711	2.65	3.18	3.26	2.98	3.28	3.19	3.164
0.26 µg/ml, genetic background: ΔmarA	3.38	4.32	3.81	3.21	3.57	3.79	3.01	2.93
0.26 µg/ml, genetic background: Δrob	3.15	2.88	3.35	3.15	2.86	2.87	3.08	3.18
0.26 µg/ml, genetic background: ΔsoxS	3.23	3.05	3.27	3.01	3.41	3.29	3.18	3.25
0.52 µg/ml, genetic background: wild type	2.6	2.71	3.39	3.15	3.03	3.301	2.97	2.89
0.52 µg/ml, genetic background: ΔmarA	3.12	4.25	3.78	3.12	3.57	3.85	2.78	2.91
0.52 µg/ml, genetic background: Δrob	2.76	2.9	3.39	3.01	2.27	2.67	2.77	2.84
0.52 µg/ml, genetic background: ΔsoxS	2.83	2.87	3.1	2.62	3.19	3.17	3.07	2.91
1 µg/ml, genetic background: wild type	2.82	2.79	3.06	3.19	2.99	3.2	2.97	3.1
1 µg/ml, genetic background: ΔmarA	3.34	4.12	3.95	3.13	3.47	3.83	2.96	2.89
1 µg/ml, genetic background: Δrob	3.12	2.8	3.23	3	2.74	2.78	2.94	2.99
1 µg/ml, genetic background: ΔsoxS	3.18	2.9	2.96	2.75	3.4	3.39	3.15	3.229
2.1 µg/ml, genetic background: wild type	2.47	2.54	3.19	2.878	2.68	2.99	2.82	2.88
2.1 µg/ml, genetic background: ΔmarA	3.11	3.76	3.29	2.87	3.15	3.45	2.52	2.55
2.1 µg/ml, genetic background: Δrob	2.78	2.6	3.18	2.57	2.4	2.33	2.53	2.74
2.1 µg/ml, genetic background: ΔsoxS	2.78	2.52	2.6	2.22	2.48	2.68	2.57	2.68
